One substance from doi:10.1101/2025.10.10.681541 can be followed below.

No constants are given. Whether binding was seen depends on the method and setting. A result given as binding can be weak or reduced; the word gives no strength. Where a sequence is shown, tags or fusion partners need not be part of it.

The target in the assay is T1, E. coli cytochrome bd-I subunit CydX (E. coli) (UniProt P56100).
T1 sequence: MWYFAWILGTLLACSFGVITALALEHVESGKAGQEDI
Description: cryo-EM structure.

On to E. coli cytochrome bd-I subunit CydH, for which the binding entry was “binds”.
